In PubChem BioAssay AID504444 (National Center for Advancing Translational Sciences (NCATS), 2011):
Out of some 360,000 compounds screened, about 7,500 (2.1%) were called active. Inconclusive means that the source gave no clear call. Such entries were picked first, then a sample of the others. Calls come from the whole dose curve; as a rule, active = well fitted inhibition curve with a large enough effect; inconclusive = small, poorly fitted or top-dose-only effect, or effect the other way; inactive = flat fitted curve, though single readings scatter. Potencies of inconclusive entries are doubtful fits and often do not repeat.

Experiment: Nrf2 qHTS screen for inhibitors; note: nearly all actives have a fitted effect of over 60% in size
Conditions: A549 ARE-Fluc reporter, luciferase luminescence, 18-24 h; activity change, negative = inhibition: at 46 µM (top of the series)
How it was run: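 Concentration-response testing used A549 ARE_Fluc cells at 5000 cells/well. Following an 18-24 h compound incubation, viability was read by fluorescence (Ex 405/Em 525) and luciferase output by luminescence.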
% is set by controls: 0 for no effect and ±100 for the full control effect; potency is the fitted concentration of half-maximal effect.

Compound	activity change, negative = inhibition	Potency
COc1ccc(/C=C2\SC(=O)N(CCn3cnnn3)C2=O)cc1	inactive: 7.72%	
COc1ccc([C@H]2CC(=O)C=C(c3ccc(F)cc3OCc3ccccc3)C2)cc1OC		inconclusive: 23.1 µM [falling, single point]
O=[N+]([O-])c1cc(Cl)cc(/C=N/NC(=S)Nc2ccc(S(=O)(=O)N3CCOCC3)cc2)c1O	inactive: -11.9%	
COc1ccc(NC(=O)c2ccc(-c3ccc([N+](=O)[O-])cc3)o2)cc1	inactive: 18.4%	
Oc1ccc(/C(Cc2ccc3ccccc3n2)=N\Nc2ccccc2)c(O)c1		inconclusive: 4.11 µM [activator, partial curve, poor fit]
O=C(/C=C\c1ccc2c(c1)OCO2)Nc1c2c(nn1-c1ccc(Cl)cc1)CSC2		inconclusive: 8.2 µM [falling, partial curve, poor fit]
CCC(=O)NC(c1ccc(OC)cc1)c1cc(Cl)c2cccnc2c1O (centres undefined)		active: 25.9 µM
COC(=O)C1Cc2ccccc2CN1S(=O)(=O)c1ccc(F)cc1 (centres undefined)	inactive: -7.01%	
CCOC(=O)c1cnc2ccc(C(=O)OC)cc2c1NCCCN1CCOCC1	inactive: 0.691%	
N#Cc1sc(NCc2cccc(Cl)c2)nc1Cl		inconclusive: 13 µM [activator, partial curve]
CC(NC(=O)CC(c1ccccc1)c1cc(Cl)ccc1O)c1ccccc1 (centres undefined)	inactive: -24%	
COC(=O)c1c(C)oc2ccc(N(C(=O)c3ccncc3)S(=O)(=O)c3ccc(OC)cc3)cc12		active: 0.82 µM
CN(c1ccccc1)S(=O)(=O)c1ccc(C(=O)NCc2cccs2)cc1		inconclusive: 13 µM [falling, partial curve, poor fit]
OCCn1c(SC2CCCCC2)nc2ccccc21		inconclusive: 23.1 µM [falling, single point]
O=C(/C=C/c1ccc2c(c1)OCCCO2)c1ccc2ccccc2c1O		inconclusive: 25.9 µM [activator, partial curve, poor fit]
CCOC(=O)c1ccccc1NC(=O)COC(=O)CSCC(=O)Nc1cc(C)on1	inactive: 0.763%	
COCCCN1C(=O)C(=O)/C(=C(/O)c2ccc(S(=O)(=O)N3CCOCC3)cc2)C1c1ccc(Cl)cc1 (centres undefined)	inactive: -1.39%	
CCc1ccc(/C=C/c2c[nH]c3ccccc23)[n+](CC)c1		active: 6.51 µM
COc1cc2c(cc1OC)CN(Cc1cc(=O)oc3c(C)c(C)ccc13)CC2		inconclusive: 25.9 µM [falling, single point]
COc1ccc(Cc2nnc(NC(=O)c3ccco3)s2)cc1		inconclusive: 16.4 µM [activator, partial curve]
O=C1CN(c2ccccc2)C(=S)N1C(=O)c1ccc(Br)cc1		inconclusive: 8.2 µM [activator, partial curve]
O=C(c1ccc2c3c(cccc13)CC2)C1CCCN(Cc2ccncc2)C1 (centres undefined)		inconclusive: 29.1 µM [falling, single point]
COc1ccccc1NC(=O)c1ccc(COc2ccc(C)c(C)c2)o1		inconclusive: 11.6 µM [activator, partial curve, poor fit]

Reformatted bar-delimited: 21 of the compounds above
Compound | activity change, negative = inhibition | Potency
COc1ccc(/C=C2\SC(=O)N(CCn3cnnn3)C2=O)cc1 | inactive: 7.72% | 
COc1ccc([C@H]2CC(=O)C=C(c3ccc(F)cc3OCc3ccccc3)C2)cc1OC |  | inconclusive: 23.1 µM [falling, single point]
O=[N+]([O-])c1cc(Cl)cc(/C=N/NC(=S)Nc2ccc(S(=O)(=O)N3CCOCC3)cc2)c1O | inactive: -11.9% | 
COc1ccc(NC(=O)c2ccc(-c3ccc([N+](=O)[O-])cc3)o2)cc1 | inactive: 18.4% | 
Oc1ccc(/C(Cc2ccc3ccccc3n2)=N\Nc2ccccc2)c(O)c1 |  | inconclusive: 4.11 µM [activator, partial curve, poor fit]
O=C(/C=C\c1ccc2c(c1)OCO2)Nc1c2c(nn1-c1ccc(Cl)cc1)CSC2 |  | inconclusive: 8.2 µM [falling, partial curve, poor fit]
CCC(=O)NC(c1ccc(OC)cc1)c1cc(Cl)c2cccnc2c1O (centres undefined) |  | active: 25.9 µM
COC(=O)C1Cc2ccccc2CN1S(=O)(=O)c1ccc(F)cc1 (centres undefined) | inactive: -7.01% | 
CCOC(=O)c1cnc2ccc(C(=O)OC)cc2c1NCCCN1CCOCC1 | inactive: 0.691% | 
N#Cc1sc(NCc2cccc(Cl)c2)nc1Cl |  | inconclusive: 13 µM [activator, partial curve]
CC(NC(=O)CC(c1ccccc1)c1cc(Cl)ccc1O)c1ccccc1 (centres undefined) | inactive: -24% | 
COC(=O)c1c(C)oc2ccc(N(C(=O)c3ccncc3)S(=O)(=O)c3ccc(OC)cc3)cc12 |  | active: 0.82 µM
CN(c1ccccc1)S(=O)(=O)c1ccc(C(=O)NCc2cccs2)cc1 |  | inconclusive: 13 µM [falling, partial curve, poor fit]
OCCn1c(SC2CCCCC2)nc2ccccc21 |  | inconclusive: 23.1 µM [falling, single point]
O=C(/C=C/c1ccc2c(c1)OCCCO2)c1ccc2ccccc2c1O |  | inconclusive: 25.9 µM [activator, partial curve, poor fit]
CCOC(=O)c1ccccc1NC(=O)COC(=O)CSCC(=O)Nc1cc(C)on1 | inactive: 0.763% | 
COCCCN1C(=O)C(=O)/C(=C(/O)c2ccc(S(=O)(=O)N3CCOCC3)cc2)C1c1ccc(Cl)cc1 (centres undefined) | inactive: -1.39% | 
CCc1ccc(/C=C/c2c[nH]c3ccccc23)[n+](CC)c1 |  | active: 6.51 µM
COc1cc2c(cc1OC)CN(Cc1cc(=O)oc3c(C)c(C)ccc13)CC2 |  | inconclusive: 25.9 µM [falling, single point]
COc1ccc(Cc2nnc(NC(=O)c3ccco3)s2)cc1 |  | inconclusive: 16.4 µM [activator, partial curve]
O=C1CN(c2ccccc2)C(=S)N1C(=O)c1ccc(Br)cc1 |  | inconclusive: 8.2 µM [activator, partial curve]

Next records follow:

Compound	activity change, negative = inhibition	Potency
CCOc1ccc2c(c1)C(c1ccc(C)cc1)=NNC(c1ccc(OC)cc1)=N2		inconclusive: 7.31 µM [falling, partial curve, poor fit]
Cc1ccc(-n2nnc(-c3cc4ccccc4nc3Cl)n2)cc1		inconclusive: 3.26 µM [activator, partial curve]
CCn1cc2nc(SCc3cc(C)ccc3C)n(CCc3ccccc3)c(=O)c2n1		inconclusive: 23.1 µM [falling, single point]
c1ccc2[nH]c(SCC3CCCCO3)nc2c1 (centres undefined)		inconclusive: 2.59 µM [activator, full curve]
CNCCOc1ccccc1OC(C)C		inconclusive: 0.411 µM [falling, partial curve, poor fit]
COCCCNC(=O)c1c(NC(=O)c2cccs2)sc2c1CCCC2		inconclusive: 14.6 µM [falling, partial curve, poor fit]
O=C1CC(c2ccc3c(c2)OCO3)c2cc3c(cc2N1)OCCO3 (centres undefined)	inactive: -19.9%	
Cc1nn(C)c(C)c1NC(=O)COc1ccc(Cl)cc1		inconclusive: 20.6 µM [falling, single point]
O=C(Nc1nc(-c2cccnc2)cs1)c1ccccc1Cl		inconclusive: 0.231 µM [activator, full curve, poor fit]
Cn1cc(CN(C(=O)Nc2ccccc2)C2CCCCC2)c2ccccc21	inactive: -26.2%	
COc1ccccc1-c1ccc(/C=C2/C=C(C)OC2=O)o1		inconclusive: 29.1 µM [activator, single point]
COc1cc2cnc(-c3ccccc3)cc2cc1OC		inconclusive: 18.4 µM [activator, single point]
CC(C)(C)c1ccc(C(=O)Nc2ccc(S(N)(=O)=O)cc2)cc1		inconclusive: 10.3 µM [falling, partial curve, poor fit]
COc1ccc(Cn2nnnc2CN(Cc2cc3cc(C)ccc3[nH]c2=O)C2CCCC2)cc1		inconclusive: 16.4 µM [falling, single point]
CC(C)Oc1cccc(C(=O)Nc2ccc(Br)cc2F)c1		inconclusive: 32.6 µM [falling, single point]
CSc1ccccc1C(=O)NCCOc1cccc(C)c1		inconclusive: 16.4 µM [falling, partial curve, poor fit]
Cc1ccccc1OCC(O)CNC1CCC(NCC(O)COc2ccccc2C)CC1 (centres undefined)	inactive: 21.6%	
CCOc1ccc(S(=O)(=O)Nc2ccc(C(=O)NCC(c3ccc(OC)cc3)N3CCOCC3)cc2)cc1 (centres undefined)	inactive: 6.7%	
Cc1cccc(NC(=O)CSc2nnc(NC(=O)C3CCC3)s2)c1		inconclusive: 32.6 µM [falling, single point]
COc1ccccc1Nc1ncnc2c1c(C)c(C)n2CCO		inconclusive: 10.3 µM [activator, partial curve, poor fit]
OC(CCN1CCOCC1)c1ccccc1 (centres undefined)		inconclusive: 3.66 µM [falling, single point]
CCC(c1nnnn1Cc1ccco1)N1CCN(c2cc(Cl)ccc2C)CC1 (centres undefined)		inconclusive: 32.6 µM [falling, single point]
CCOC(=O)c1c(NC(=S)N2CCCCC2)sc2c1CCN(C(=O)OCC)C2		inconclusive: 20.6 µM [falling, single point]

Compound	activity change, negative = inhibition	Potency
Cc1cccc2nc(-c3ccco3)c(Nc3ccc4c(c3)OCCO4)n12		inconclusive: 9.2 µM [falling, partial curve, poor fit]
COc1ccccc1N=c1oc2cc(O)ccc2cc1C(=O)NCC1CCCO1 (centres undefined)		inconclusive: 3.66 µM [falling, full curve]
CCN(CC)c1ccc(NC(=S)NC(=O)c2cccs2)cc1	inactive: 8.74%	
Cn1c(=O)c2c(nc(N3CCOCC3)n2Cc2ccccc2Cl)n(C)c1=O		inconclusive: 0.82 µM [falling, partial curve]
CCC(C(=O)NC1CCCCC1)N(Cc1cccs1)C(=O)CCC(=O)Nc1cc(C)on1 (centres undefined)		active: 8.2 µM
COc1ccc(NS(=O)(=O)c2cc(NC(=O)[C@@H](NC(=O)c3ccccc3)C(C)C)ccc2C)cc1		inconclusive: 9.2 µM [falling, partial curve, poor fit]
CC1=Nc2ccccc2/C1=C/c1nc(-c2ccc(C)s2)oc1O	inactive: 1.99%	
Cc1noc(NS(=O)(=O)c2ccc(NC(=O)c3nn(-c4ccc(F)cc4)ccc3=O)cc2)c1C	inactive: 1.92%	
Cc1ccccc1S(=O)(=O)NC1OC(=O)C(Oc2ccccc2)=C1Br (centres undefined)	inactive: -0.906%	
O=S(=O)(c1c(Cl)cc(Br)cc1Cl)N1CCN(C(=S)NC2CC2)CC1		active: 11.6 µM
CN(C)C(=O)c1cnc(Sc2ncc(C(F)(F)F)cc2Cl)n1C		inconclusive: 0.517 µM [activator, full curve, poor fit]
N#Cc1ccccc1CSc1nnc(Cc2ccccc2)o1		inconclusive: 23.1 µM [activator, single point]
CCOC(=O)C1(Cc2cccc(OC)c2)CCCN(C(=O)c2cc(C)[nH]n2)C1 (centres undefined)		inconclusive: 18.4 µM [activator, partial curve]
COc1cc(/C=C2\SC(=Nc3ccccc3)N(Cc3ccco3)C2=O)ccc1OC(C)C(=O)O (centres undefined)	inactive: -28.5%	
Cc1nc(NCCCn2ccnc2)c2ccccc2n1		inconclusive: 0.164 µM [falling, full curve, poor fit]
CCc1nnc(NC(=O)CCCSc2nc3ccccc3[nH]2)s1		inconclusive: 11.6 µM [falling, partial curve, poor fit]
COc1ccc(NC(=O)CN2C(=O)C(=O)N(C3CCCC3)C2=O)c(OC)c1		inconclusive: 0.146 µM [falling, full curve, poor fit]
COc1ccc(C2NC3=C(CCC3)C3(C#N)C(OC)(OC)N=C(N)C23C#N)cc1 (centres undefined)		inconclusive: 20.6 µM [falling, single point]
CCOC(=O)C(Cc1ccc(OC)c([N+](=O)[O-])c1)NC(=O)CCC(=O)Nc1ccc(OC)cc1 (centres undefined)		inconclusive: 1.84 µM [activator, partial curve]
CCOc1ncccc1C(=O)Nc1cc(C(F)(F)F)ccc1N1CCOCC1		inconclusive: 23.1 µM [falling, partial curve, poor fit]
NC(Cc1ccccc1)C(O)c1ccco1 (centres undefined)	inactive: 14.9%	
O=C(COC(=O)/C=C/c1cccc(Br)c1)NC1CC1		inconclusive: 32.6 µM [falling, single point]
CC(C)Cn1nc(C(=O)Nc2nnc(C3CC3)s2)c2ccccc2c1=O		inconclusive: 20.6 µM [falling, partial curve, poor fit]
